For the experiment, the target named is T1, LLGL Scribble cell polarity complex component 2 (LLGL2) (UniProt Q6P1M3).
T1 sequence: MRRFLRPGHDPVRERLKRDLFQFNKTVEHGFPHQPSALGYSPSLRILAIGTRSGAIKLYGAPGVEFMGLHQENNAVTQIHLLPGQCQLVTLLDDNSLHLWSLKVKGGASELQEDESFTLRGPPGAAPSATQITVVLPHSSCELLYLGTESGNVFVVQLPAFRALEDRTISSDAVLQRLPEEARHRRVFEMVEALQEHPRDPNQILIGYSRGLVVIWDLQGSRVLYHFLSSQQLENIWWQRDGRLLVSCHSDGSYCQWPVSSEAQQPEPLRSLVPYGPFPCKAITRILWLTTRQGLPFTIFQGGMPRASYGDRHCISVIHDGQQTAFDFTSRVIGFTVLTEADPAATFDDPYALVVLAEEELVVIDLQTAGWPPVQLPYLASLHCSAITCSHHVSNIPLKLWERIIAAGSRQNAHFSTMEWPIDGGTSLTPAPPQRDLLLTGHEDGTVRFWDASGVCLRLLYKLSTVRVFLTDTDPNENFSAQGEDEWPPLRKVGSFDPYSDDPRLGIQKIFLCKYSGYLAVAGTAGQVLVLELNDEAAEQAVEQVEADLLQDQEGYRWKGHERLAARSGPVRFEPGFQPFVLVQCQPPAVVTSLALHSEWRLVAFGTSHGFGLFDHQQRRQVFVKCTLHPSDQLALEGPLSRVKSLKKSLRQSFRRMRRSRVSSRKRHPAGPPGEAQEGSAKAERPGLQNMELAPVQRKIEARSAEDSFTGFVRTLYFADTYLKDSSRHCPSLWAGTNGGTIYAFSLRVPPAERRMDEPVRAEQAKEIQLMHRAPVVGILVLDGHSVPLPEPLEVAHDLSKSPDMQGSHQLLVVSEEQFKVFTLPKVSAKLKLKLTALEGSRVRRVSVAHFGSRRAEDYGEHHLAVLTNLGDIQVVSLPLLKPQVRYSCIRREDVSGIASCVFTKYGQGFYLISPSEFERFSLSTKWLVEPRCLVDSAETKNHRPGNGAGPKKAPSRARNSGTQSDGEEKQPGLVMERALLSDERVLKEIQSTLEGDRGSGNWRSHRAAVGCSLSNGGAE
As to the kind of experiment: affinity purification with mass spectrometry; co-IP with monoclonal anti-LLGL2 antibody from lysate of LLGL2-overexpressing ES-2 cells (weak lysis buffer, overnight at 4 °C, protein A/G magnetic beads, PBST washes); whole gel strip (>10 kDa) analysed by LC-MS.

The chains behind the UniProt entries cited, without tags or fusion partners.
UniProt P12814: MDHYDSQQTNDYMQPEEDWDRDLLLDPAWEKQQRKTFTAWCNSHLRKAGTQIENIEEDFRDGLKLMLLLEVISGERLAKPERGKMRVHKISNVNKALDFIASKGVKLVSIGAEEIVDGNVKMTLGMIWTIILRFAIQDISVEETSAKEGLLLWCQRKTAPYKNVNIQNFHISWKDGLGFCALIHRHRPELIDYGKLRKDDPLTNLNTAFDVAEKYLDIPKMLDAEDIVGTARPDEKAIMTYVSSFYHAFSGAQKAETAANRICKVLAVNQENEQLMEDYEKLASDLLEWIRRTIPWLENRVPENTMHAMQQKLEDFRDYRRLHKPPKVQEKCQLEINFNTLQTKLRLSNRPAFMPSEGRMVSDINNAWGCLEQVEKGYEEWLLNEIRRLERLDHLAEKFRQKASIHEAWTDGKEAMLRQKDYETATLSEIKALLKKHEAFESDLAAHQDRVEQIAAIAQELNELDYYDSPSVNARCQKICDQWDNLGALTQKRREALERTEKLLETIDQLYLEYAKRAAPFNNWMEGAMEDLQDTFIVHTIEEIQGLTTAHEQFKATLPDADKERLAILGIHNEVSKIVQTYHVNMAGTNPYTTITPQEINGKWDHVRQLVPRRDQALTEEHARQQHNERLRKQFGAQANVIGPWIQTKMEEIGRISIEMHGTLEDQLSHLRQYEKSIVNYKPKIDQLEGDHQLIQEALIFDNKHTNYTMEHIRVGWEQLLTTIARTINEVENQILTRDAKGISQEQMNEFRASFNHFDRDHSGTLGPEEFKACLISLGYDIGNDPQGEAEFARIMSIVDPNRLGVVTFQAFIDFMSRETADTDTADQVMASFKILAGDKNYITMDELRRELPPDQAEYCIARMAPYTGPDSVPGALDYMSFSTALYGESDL

Results are given in words; binding and its absence hold for the method and conditions named. Binding seen in cells or lysates may run through a third protein. A yes stands for co-enrichment or nearness to the bait. Other partners may have been found.

For “α-actinin-1 (ACTN1) (from UniProt P12814 1-892)”, the binding result is “binds”.

The record behind these values is PMC10742334.
